Results are given in words; binding and its absence hold for the method and conditions named. Binding seen in cells or lysates may run through a third protein. Here binding means that the protein was enriched with, or labelled near, the bait; the list need not be complete.
B1: CwsA, endogenous (protein, UniProt P9WJF3 1-145)
chain: MSEQVETRLTPRERLTRGLAYSAVGPVDVTRGLLELGVGLGLQSARSTAAGLRRRYREGRLAREVAAAQETLAQELTAAQDVVANLPQALQDARTQRRSKHHLWIFAGIAAAILAGGAVAFSIVRRSSRPEPSPRPPSVEVQPRS
B2: MurJ, endogenous (protein, UniProt P9WJK3 1-1184)
chain: MRPSPGEVPTASQRQPELSDAALVSHSWAMAFATLISRITGFARIVLLAAILGAALASSFSVANQLPNLVAALVLEATFTAIFVPVLARAEQDDPDGGAAFVRRLVTLATTLLLGATTLSVLAAPLLVRLMLGTNPQVNEPLTTAFAYLLLPQVLVYGLSSVFMAILNTRNVFGPPAWAPVVNNVVAIATLAVYLAVPGELSVDPVRMGNAKLLVLGIGTTAGVFAQTAVLLVAIRREHISLRPLWGIDQRLKRFGAMAAAMVLYVLISQLGLVVGNRIASTAAASGPAIYNYTWLVLMLPFGMIGVTVLTVVMPRLSRNAAADDTPAVLADLSLATRLTMITLIPTVAFMTVGGPAIGSALFAYGNFGDVDAGYLGAAIALSAFTLIPYALVLLQLRVFYAREQPWTPITIIVVITGVKILGSLLAPHITGDPQLVAAYLGLANGLGFLAGTIVGYYILRRALRPDGGQLIGVGEARTVLVTVAASLLAGLLAHVADRLLGLSELTAHAGSVGSLLRLSVLALIMLPILAAVTLCARVPEARAALDAVRARIRSRRLKTGPQTQNVLDQSSRPGPVTYPERRRLAPPRGKSVVHEPIRRRPPEQVARAGRAKGPEVIDRPSENASFGAASGAELPRPVADELQLDAPAGRDPGPVSRPHPSDLQNGDLPADAARGPIAFDALREPDRESSAPPDDVQLVPGARIANGRYRLLIFHGGVPPLQFWQALDTALDRQVALTFVDPQGVLPDDVLQETLSRTLRLSRIDKPGVARVLDVVHTRAGGLVVAEWIRGGSLQEVADTSPSPVGAIRAMQSLAAAADAAHRAGVALSIDHPSRVRVSIDGDVVLAYPATMPDANPQDDIRGIGASLYALLVNRWPLPEAGVRSGLAPAERDTAGQPIEPADIDRDIPFQISAVAARSVQGDGGIRSASTLLNLMQQATAVADRTEVLGPIDEAPVSAAPRTSAPNSETYTRRRRNLLIGIGAGAAVLMVALLVLASVLSRIFGDVSGGLNKDELGLNAPTASTSAASSAPPGSVVKPTKVTVFSPDGGADNPGEADLAIDGNPATSWKTDIYTDPVPFPSFKNGVGLMLQLPQATVVGTVAIDVASTGTKVEIRSASTPTPATLEDTAVLTSATALRPGHNTISVEAAAPTSNLLVWISTLGTTDGKSQADISEITIYAAS

Chains of the proteins cited; added tags and fusions are not shown.
UniProt L7N653: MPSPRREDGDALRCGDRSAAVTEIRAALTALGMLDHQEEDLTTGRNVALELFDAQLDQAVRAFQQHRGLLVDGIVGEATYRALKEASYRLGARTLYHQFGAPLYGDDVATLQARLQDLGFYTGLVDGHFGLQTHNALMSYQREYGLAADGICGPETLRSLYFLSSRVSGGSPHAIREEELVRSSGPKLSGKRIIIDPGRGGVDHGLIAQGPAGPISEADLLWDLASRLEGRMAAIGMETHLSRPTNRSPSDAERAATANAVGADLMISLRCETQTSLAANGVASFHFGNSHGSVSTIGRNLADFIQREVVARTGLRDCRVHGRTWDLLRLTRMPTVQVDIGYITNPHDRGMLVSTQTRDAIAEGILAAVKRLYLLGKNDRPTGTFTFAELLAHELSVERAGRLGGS

Biological target: CwlM, endogenous, membrane fraction of M. tuberculosis (non-phosphorylated form) (M. tuberculosis (endogenous in M. tuberculosis)) (UniProt L7N653)
Assay: affinity purification with mass spectrometry

Binder	binding
B1	binds
B2	binds

— PMC6180346, “Two Faces of CwlM, an Essential PknB Substrate, in Mycobacterium tuberculosis” (Cell Reports, 2018)
